Results are given in words; binding and its absence hold for the method and conditions named. Binding seen in cells or lysates may run through a third protein. For some assays here: Binding calls can cover weak binding; strength is not graded here. Where a sequence is shown, tags or fusion partners need not be part of it.
T1: Flag-α-Ada (α-Adaptin) (Drosophila) (UniProt P91926)
T1 sequence: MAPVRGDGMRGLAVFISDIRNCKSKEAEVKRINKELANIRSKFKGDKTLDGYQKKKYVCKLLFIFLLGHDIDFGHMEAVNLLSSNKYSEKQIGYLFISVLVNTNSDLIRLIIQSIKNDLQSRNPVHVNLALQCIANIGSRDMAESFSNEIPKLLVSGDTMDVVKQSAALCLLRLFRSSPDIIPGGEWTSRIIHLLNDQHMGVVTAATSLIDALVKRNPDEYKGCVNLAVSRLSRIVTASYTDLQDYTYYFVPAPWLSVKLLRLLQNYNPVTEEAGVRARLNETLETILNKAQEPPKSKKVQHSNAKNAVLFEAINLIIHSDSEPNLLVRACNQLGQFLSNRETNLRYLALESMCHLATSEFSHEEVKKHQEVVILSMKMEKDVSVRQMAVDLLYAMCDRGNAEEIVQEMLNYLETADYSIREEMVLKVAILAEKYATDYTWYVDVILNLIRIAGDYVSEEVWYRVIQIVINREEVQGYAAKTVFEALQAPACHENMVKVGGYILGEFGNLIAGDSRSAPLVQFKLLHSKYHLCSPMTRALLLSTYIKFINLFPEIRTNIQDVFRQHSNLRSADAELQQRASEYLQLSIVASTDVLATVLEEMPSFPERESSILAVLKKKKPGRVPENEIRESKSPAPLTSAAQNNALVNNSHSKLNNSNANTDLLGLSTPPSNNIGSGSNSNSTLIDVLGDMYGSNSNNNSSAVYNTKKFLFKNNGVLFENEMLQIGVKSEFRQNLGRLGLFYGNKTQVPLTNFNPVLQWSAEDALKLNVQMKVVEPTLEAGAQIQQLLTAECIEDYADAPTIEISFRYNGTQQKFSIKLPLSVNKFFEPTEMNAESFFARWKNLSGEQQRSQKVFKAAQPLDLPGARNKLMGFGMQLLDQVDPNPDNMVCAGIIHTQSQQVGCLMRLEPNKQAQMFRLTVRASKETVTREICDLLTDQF

T2: Flag-Bap (β-Adaptin) (Drosophila) (UniProt Q24253)
T2 sequence: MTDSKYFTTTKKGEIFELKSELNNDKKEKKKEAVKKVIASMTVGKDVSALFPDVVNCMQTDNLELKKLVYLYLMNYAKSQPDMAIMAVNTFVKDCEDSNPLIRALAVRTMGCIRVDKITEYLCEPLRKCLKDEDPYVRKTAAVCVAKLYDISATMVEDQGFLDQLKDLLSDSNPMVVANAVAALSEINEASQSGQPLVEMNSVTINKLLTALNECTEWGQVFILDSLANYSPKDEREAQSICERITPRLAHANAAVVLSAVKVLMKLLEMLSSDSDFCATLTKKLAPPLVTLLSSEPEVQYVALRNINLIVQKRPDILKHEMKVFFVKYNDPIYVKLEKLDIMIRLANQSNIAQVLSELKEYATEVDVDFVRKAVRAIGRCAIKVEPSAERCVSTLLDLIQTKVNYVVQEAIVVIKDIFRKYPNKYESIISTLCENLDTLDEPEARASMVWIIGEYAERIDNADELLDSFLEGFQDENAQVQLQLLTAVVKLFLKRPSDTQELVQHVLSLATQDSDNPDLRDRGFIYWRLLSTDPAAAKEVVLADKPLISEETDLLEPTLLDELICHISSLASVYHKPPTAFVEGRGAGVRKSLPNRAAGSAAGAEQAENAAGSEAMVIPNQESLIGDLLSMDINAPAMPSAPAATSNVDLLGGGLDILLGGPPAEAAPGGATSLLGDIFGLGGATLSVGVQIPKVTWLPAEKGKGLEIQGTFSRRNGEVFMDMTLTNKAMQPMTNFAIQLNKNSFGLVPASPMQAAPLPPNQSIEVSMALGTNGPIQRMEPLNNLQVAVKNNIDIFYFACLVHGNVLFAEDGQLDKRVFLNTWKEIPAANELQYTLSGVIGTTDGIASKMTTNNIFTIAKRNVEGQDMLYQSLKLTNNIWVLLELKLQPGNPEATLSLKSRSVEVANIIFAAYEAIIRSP

T3: Flag-Rab5 (Drosophila) (UniProt Q9V3I2)
T3 sequence: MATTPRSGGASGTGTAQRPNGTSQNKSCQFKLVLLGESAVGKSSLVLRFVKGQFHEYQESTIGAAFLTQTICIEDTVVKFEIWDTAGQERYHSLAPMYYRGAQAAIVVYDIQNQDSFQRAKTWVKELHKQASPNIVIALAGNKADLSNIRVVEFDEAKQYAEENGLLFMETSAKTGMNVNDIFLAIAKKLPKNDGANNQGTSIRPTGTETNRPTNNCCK

B1: Flag-α-Ada (α-Adaptin) (protein, UniProt P91926 1-940)
chain: T1 sequence
B2: Flag-Rab5 (protein, UniProt Q9V3I2 1-219)
chain: T3 sequence

What was measured:
Assay in all cases: co-IP; S2 cells co-transfected with the two tagged proteins; lysate (25 mM Tris pH 8, 27.5 mM NaCl, 20 mM KCl, 0.5% Nonidet P40) immunoprecipitated with anti-Myc, anti-Flag or anti-HA overnight at 4°C, protein A/G beads, washed four times with cold PBS; western blot
[1] = biological target: T1, Flag-α-Ada (α-Adaptin) (Drosophila)
[2] = biological target: T2, Flag-Bap (β-Adaptin) (Drosophila)
Flag-Rab5 (Drosophila) = biological target: T3, Flag-Rab5 (Drosophila)
[3] = biological target: Myc-Prd1 (pruning defect 1) (Drosophila)

| Molecule | binding [1] | binding [2] | binding (Flag-Rab5 (Drosophila)) | binding [3] |
| --- | --- | --- | --- | --- |
| Myc-Prd1 (pruning defect 1) (Drosophila) | binds | binds | no binding |  |
| B1 |  |  |  | binds |
| B2 |  |  |  | no binding |

— article PMC6126864
